Assay results as given in paper PMC4538849.
No constants are given. Whether binding was seen depends on the method and setting. Some results given as binding are weak or reduced against the parent protein; the word gives no strength. Tags and fused reporters may be left off the sequences shown.

Sequences of proteins named here, by UniProt entry; tags and fusion partners are left off. Residues count along the entry.
UniProt Q8IXI1, residues 1-592: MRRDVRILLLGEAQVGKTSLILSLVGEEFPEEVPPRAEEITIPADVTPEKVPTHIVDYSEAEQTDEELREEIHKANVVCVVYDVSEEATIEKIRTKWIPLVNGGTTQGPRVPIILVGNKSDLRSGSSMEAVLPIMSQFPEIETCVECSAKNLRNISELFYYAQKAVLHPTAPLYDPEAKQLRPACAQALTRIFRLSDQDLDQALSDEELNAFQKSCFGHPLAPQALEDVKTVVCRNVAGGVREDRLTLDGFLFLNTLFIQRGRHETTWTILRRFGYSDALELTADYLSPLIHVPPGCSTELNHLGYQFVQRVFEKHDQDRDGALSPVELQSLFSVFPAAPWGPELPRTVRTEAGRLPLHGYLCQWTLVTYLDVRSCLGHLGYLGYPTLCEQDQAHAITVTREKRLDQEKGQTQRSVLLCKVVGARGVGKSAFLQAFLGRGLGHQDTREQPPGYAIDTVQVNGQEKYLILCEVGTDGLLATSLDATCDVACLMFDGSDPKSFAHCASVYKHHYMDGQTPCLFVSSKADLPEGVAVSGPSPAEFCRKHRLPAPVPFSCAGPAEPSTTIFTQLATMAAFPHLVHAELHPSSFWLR

Molecular target: T1, LexA-fused C-terminal fragment of Cenp-F (amino acids 2977–3020) (UniProt P49454)
T1 sequence: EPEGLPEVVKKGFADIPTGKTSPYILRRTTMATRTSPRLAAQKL
Assay: two-hybrid; LexA-Cenp-F bait (pEG202), Miro prey (pJG4-5), yeast EGY48 with lacZ reporter pSH18-34, galactose medium, X-gal overlay

- binding: binds
Substance: Miro2 (amino acids 1–592) (from UniProt Q8IXI1 1-592) (domain or fragment)
